In assay [1] the target is Recombinant VEGF (human) (UniProt P15692). The assay can be described thus: co-immunoprecipitation of I-VEGF with DKK3 captured on anti-DKK3 antibody beads, scintillation counting (N=1).
Assay [2] has the same target. Nature of the assay: functional ELISA (DKK3-coated wells, VEGF added, anti-VEGF detection) and co-immunoprecipitation of I-VEGF with DKK3 captured on anti-DKK3 beads. Background: In an ELISA, binding on a coated surface is turned into a signal by an enzyme label.

Amino acid sequences for entries named in this document (tags omitted). A change or cut given only in a name is not applied to a line headed by its entry. Chains listed by the source or under a name are the forms on record and can include a tag or linker. Residues count along the entry.
Recombinant VEGF (P15692, form named): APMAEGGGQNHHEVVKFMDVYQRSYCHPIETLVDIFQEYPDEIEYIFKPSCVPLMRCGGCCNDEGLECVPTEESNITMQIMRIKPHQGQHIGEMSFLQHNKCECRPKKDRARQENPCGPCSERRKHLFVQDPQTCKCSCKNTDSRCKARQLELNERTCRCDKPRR
UniProt Q9UBP4, residues 22-350: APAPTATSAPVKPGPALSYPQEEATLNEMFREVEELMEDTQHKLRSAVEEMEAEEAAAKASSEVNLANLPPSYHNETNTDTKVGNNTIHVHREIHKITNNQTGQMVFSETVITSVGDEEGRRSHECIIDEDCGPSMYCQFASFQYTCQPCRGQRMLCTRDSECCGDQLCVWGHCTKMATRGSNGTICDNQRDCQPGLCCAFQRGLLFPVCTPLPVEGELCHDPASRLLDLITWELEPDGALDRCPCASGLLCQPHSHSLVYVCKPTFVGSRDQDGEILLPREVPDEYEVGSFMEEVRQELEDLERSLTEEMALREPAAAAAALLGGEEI

These are yes or no findings as the source states them, for the method shown. In cells and extracts the contact can be indirect. Some results given as binding are weak or reduced against the parent protein; the word gives no strength.

For the substance “Human recombinant DKK3 (Dickkopf 3) (from UniProt Q9UBP4 22-350) (ligand)”, the binding entry with Recombinant VEGF (human) [1] and with Recombinant VEGF (human) [2] was “binds” each time.
